Hit rate of the full screen: of about 2,200 compounds, about 15 (0.7%) were called active.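 How the source made its calls: active means fitted half-maximal concentration for loss of luminescence signal no more than a set limit of log units above the top tested concentration; inconclusive means flat fit with 30 to 70% signal loss, or invalid fit; inactive means half-maximal concentration above that set limit.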 The list shows a part of the results.
assay: ADP-Glo luciferase signal interference – biochemical, luminescence, cell-free, homogeneous, artefact control for GSK3beta inhibitor project, dose response (AID 434947); conditions: Cell-free ADP-Glo reagents, 5 uM ADP;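 further: kinase-free counter screen of ADP-Glo detection reagents for GSK3beta hits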

EC50, inactive:
COc1ccc(Nc2nc(N)c(C(=O)c3ccc(F)cc3)s2)cc1 > 30 µM, CC(/C=N/NC(=O)c1nnn(-c2nonc2N)c1CN1CCCCC1)=C\c1ccccc1 > 30 µM, Cc1cc(NC(=O)/C=C/c2cccc(F)c2)n(-c2nc3ccccc3[nH]2)n1 > 30 µM, COc1cc(/C=N/NC(=O)c2ccncc2)ccc1Oc1ccc([N+](=O)[O-])cn1 > 30 µM, CN(C)CCCNc1nc(N)c([N+](=O)[O-])c(NCCO)n1 > 30 µM, CCSc1nnc(-c2ccncc2)o1 > 30 µM, CC1CCCN(S(=O)(=O)c2ccc(Br)s2)C1 (configuration not stated) > 30 µM, COc1ccc2nc(NC(=O)CCNC(=O)c3ccccc3Cl)sc2c1 > 30 µM, COc1ccc(C(C)(C)C)cc1NS(=O)(=O)c1cccc2cccnc12 > 30 µM, CC(C)(C)C(=O)c1sc(Nc2ccccc2)nc1N > 30 µM, COc1cccc(-c2ccc3nnc(SCC(=O)Nc4ccc(NC(C)=O)cc4)n3n2)c1 > 30 µM, CC(=O)N1CCc2c(sc(NC(=O)CN3C(=O)c4ccccc4C3=O)c2C(N)=O)C1 > 30 µM, COc1cccc(C2C3=C(CC(C)(C)CC3=O)Nc3cc4c(cc32)OCO4)c1 (configuration not stated) > 30 µM, COc1ccc(OC)c(CCNC(=O)c2ccc3c(=O)[nH]c4c(C(=O)NC(C)C)sc(=S)n4c3c2)c1 > 30 µM, COc1cccc2cc(C(=O)CS(=O)(=O)c3ccc(Cl)cc3)c(=O)oc12 > 30 µM, CCSc1nc(-c2ccccc2)c(C#N)c(=O)[nH]1 > 30 µM, CCC(NC(=O)Cc1c(C)c2cc3c(cc2oc1=O)OC(C)(C)CC3)C(=O)O (configuration not stated) > 30 µM, Nc1nc(NCC2CCCO2)nc(Nc2ccccc2F)c1[N+](=O)[O-] (configuration not stated) > 30 µM, O=C(O)c1cc(-c2ccc(/C=N/Nc3ccc(Cl)cc3)o2)ccc1Cl > 30 µM, Cc1ccc(OCC(=O)N/N=C\c2ccc(O)c([N+](=O)[O-])c2)c([N+](=O)[O-])c1 > 30 µM, COCCCNc1nc(N)c([N+](=O)[O-])c(Nc2cc(OC)ccc2OC)n1 > 30 µM, Nc1nc(NCCc2ccccc2)nc(NCCO)c1[N+](=O)[O-] > 30 µM, CCOC(=O)C(CC)Sc1ncnc2nc[nH]c12 (configuration not stated) > 30 µM, CN(Cc1ccccc1)S(=O)(=O)c1ccc2c(c1)NC(=O)CC(=O)N2 > 30 µM, CN(C)c1nc2c(N)ncnc2n1[C@H]1O[C@@H](CO)[C@H](O)[C@@H]1O > 30 µM, CCCN(CCC)c1nc(N)nc(-c2cc(Cl)ccc2OC)n1 > 30 µM, COc1cccc(C2C(C(=O)OCc3ccccc3)=C(C)Nc3ncnn32)c1OC (configuration not stated) > 30 µM, Cc1ccnc(NC(=O)C(C)n2cc([N+](=O)[O-])cn2)c1 (configuration not stated) > 30 µM, CC(c1ccccc1)n1c(CCCO)nc2ccccc21 (configuration not stated) > 30 µM, O=C1CN(C(=O)c2ccco2)c2ccccc2N1 > 30 µM, C=C1CSc2nc(=O)c3c4c(sc3n21)CCCC4 > 30 µM, Cc1ccc(C(=O)N/N=C\c2ccc(-c3ccc([N+](=O)[O-])cc3)o2)cn1 > 30 µM, c1cncc(-c2nc(NCC3CCCO3)c3ccccc3n2)c1 (configuration not stated) > 30 µM, COc1ccc(C2C3=C(CCCC3=O)Nc3n[nH]c(C)c32)cc1OC (configuration not stated) > 30 µM, CN=C(C)/C(C(=O)OC)=C(/O)c1ccc(Cl)cc1Cl > 30 µM, Cc1ccc(Nc2nc(NCC3CCCO3)nc(N)c2[N+](=O)[O-])cc1C (configuration not stated) > 30 µM, COCCNc1nc(N)c([N+](=O)[O-])c(NCC2CCCO2)n1 (configuration not stated) > 30 µM, Cc1cc(NC(=O)CSc2ccc3nnc(-c4ccc(F)cc4)n3n2)no1 > 30 µM, CC(C)N1C(=O)N(c2ccc(Cl)cc2)C(C)(O)CC1(C)C (configuration not stated) > 30 µM, COC(=O)c1nnn(-c2nonc2N)c1CN1CCc2ccccc21 > 30 µM, COc1cccc(NC2=CC(=O)CC(C)(C)C2)c1 > 30 µM, Cc1ccc([N+](=O)[O-])cc1N=C1C(=O)Nc2ccccc21 > 30 µM, Cn1c(=O)[nH]c(=O)c2c1nc1n2CCCS1 > 30 µM, Nc1nonc1-n1nnc(C(=O)N/N=C/c2ccccc2Cl)c1CN1CCOCC1 > 30 µM, Cc1ccc(SCc2c(C(=O)N/N=C/c3ccoc3)nnn2-c2nonc2N)cc1 > 30 µM, O=C1NC(=NCc2ccccc2)S/C1=C/c1ccc(O)cc1 > 30 µM, COc1nc(N(C)C)nc(N(C#N)CCOC(C)=O)n1 > 30 µM, CCn1c(SCC(=O)Nc2ccc(F)cc2)nnc1C1CC1 > 30 µM, CC1(C)CC(=O)C2=C(C1)Nc1cc3c(cc1C2c1ccc(F)cc1)OCO3 (configuration not stated) > 30 µM, Cc1ccc(Nc2nc(NCCCN3CCOCC3)nc(N)c2[N+](=O)[O-])cc1C > 30 µM, COc1ccc(-c2nn(-c3ccccc3)cc2/C=N/Nc2ccc3ccccc3n2)cc1OC > 30 µM, CNc1nc(N)c([N+](=O)[O-])c(Nc2cccc(F)c2)n1 > 30 µM, Cc1ccc(N2CC(C(=O)NCCCn3ccnc3)CC2=O)cc1 (configuration not stated) > 30 µM, COc1ccc(Nc2nc(N)nc(CSc3nncn3C)n2)cc1 > 30 µM, Cn1ncc(Br)c1C(=O)Nc1cccc(C(F)(F)F)c1 > 30 µM, COc1ccc(C(=O)OCCc2ccc(O)cc2)cc1 > 30 µM, COc1ccc(OC)c(C(=O)c2coc3ccc(O)c(CN(C)C)c23)c1 > 30 µM, O=C(CCS(=O)(=O)c1ccccc1)Nc1ncc([N+](=O)[O-])s1 > 30 µM, O=C(COc1cccc2cccnc12)N/N=C/c1ccc(O)cc1 > 30 µM, CC(C)Nc1nc(-c2ccncc2)nc(-c2ccccc2)c1C#N > 30 µM, CN(C)Cc1c(O)ccc2c1O/C(=C\C=C\c1ccccc1)C2=O > 30 µM, CCOC(=O)N1CCN(S(=O)(=O)c2cc(Br)cc3c2N(C(=O)C2CC2)CC3)CC1 > 30 µM, CC(NC(=O)/C=C/c1ccco1)c1nc2ccccc2n1Cc1ccccc1F (configuration not stated) > 30 µM, CC(=O)Nc1ccc(Cc2nc3c([nH]2)c(=O)n(C)c(=O)n3C)cc1 > 30 µM, CCN(CC)CCCNc1nc(N)c([N+](=O)[O-])c(NCCO)n1 > 30 µM, c1csc(C2=Nn3c(nnc3-c3ccncc3)SC2)c1 > 30 µM, O=C(OCCCN1CCCCC1)c1ccc(O)cc1 > 30 µM, COc1cccc(C(=O)Nc2nnc(C(C)C)s2)c1 > 30 µM, COc1cccc(C2CC(c3ccc(Cl)cc3)n3nc(N)nc3N2)c1 (configuration not stated) > 30 µM, Oc1ccc(/C=N/Nc2ccc(C(F)(F)F)cn2)cc1O > 30 µM, FC(F)(F)COc1ccc(-n2ccnc2)nn1 > 30 µM, Cc1ccc2nc3c(cc2c1)c(NC(=O)C(C)(C)C)nn3CC(C)C > 30 µM, COc1ccc(OC)c(Nc2nc(N)c([N+](=O)[O-])c(NCc3ccccc3)n2)c1 > 30 µM, CC(=O)Nc1ccc(S(=O)(=O)NCc2ccc(C)n2C)cc1 > 30 µM, CCCCn1nc(NC(=O)CCC)c2cc3cc(OC)ccc3nc21 > 30 µM, CC(=O)c1cccc(S(=O)(=O)NC2CCSc3ccccc32)c1 (configuration not stated) > 30 µM, COC(=O)c1nnn(-c2nonc2N)c1CSc1ccc(Cl)cc1 > 30 µM, CCOC(=O)c1cnc2ccc(Cl)cc2c1Nc1ccc(S(=O)(=O)Nc2ncccn2)cc1 > 30 µM, C[C@H](NC(=O)[C@@H]1CSC2c3ccccc3C(=O)N21)C(=O)NCc1c(F)cccc1Cl (some centres not stated) > 30 µM, c1cncc(-c2nc(NCc3ccco3)c3ccccc3n2)c1 > 30 µM, O=C(CN1C(=O)CCC1=O)Nc1ccc(Br)cc1 > 30 µM, COc1ccc(-c2c(C)n([O-])c(C)c(C)[n+]2=O)cc1 > 30 µM, CC1=C(C(=O)OCc2ccccc2)C(c2cccnc2)n2ncnc2N1 (configuration not stated) > 30 µM, Nc1nonc1-n1nnc(C(=O)N/N=C/c2ccccc2O)c1CN1CCCC1 > 30 µM, O=C(Nc1cccnc1)Nc1ccccn1 > 30 µM, CCC(=O)Nc1ccc(Nc2nc(C)c([N+](=O)[O-])c(Nc3ccc(NC(=O)CC)cc3)n2)cc1 > 30 µM, Cc1cccc(Nc2nc(N)c([N+](=O)[O-])c(N3CCOCC3)n2)c1 > 30 µM, COc1ccc(C(=O)c2sc(Nc3ccccc3F)nc2N)cc1 > 30 µM, C=CCOc1ccc(/C=N/Nc2ccccn2)cc1OC > 30 µM, c1ccc(CNc2ncnc3scc(-c4cccs4)c23)nc1 > 30 µM, Cc1ccnc(NC(=O)Cn2ccc([N+](=O)[O-])n2)c1 > 30 µM, O=C(CCCC1=NS(=O)(=O)c2ccccc2N1)Nc1ccccc1 > 30 µM
